According to PubChem BioAssay AID330 (DTP/NCI, 2004):
The list does not hold the whole screen: it gathers tests that were run many times, whatever their T/C, doses with no T/C, and many T/C values between a quarter and a half above the control. Further doses and runs are listed elsewhere. T/C is the treated group as % of the vehicle group. Some entries give survivors of the animals treated and no T/C: the source files T/C as zero there, which appears to mark a toxic dose or a test without result, not a measured value. Some doses without a T/C left all or most animals alive at the check, yet need not have been tolerated: the source hardly ever lists a survival T/C far under the control, and the zero likely stands for such cases as well. Counts of survivors are from the toxicity check (mostly the fifth day) where no day follows; animals may have died later. Schedule codes are those of the source, taken here to give the interval after Q, in days (D) or hours (H), and the number of doses after X. Some doses were run more than once; the results are listed from low to high. For survival time, this PubChem deposit counts one and a half times the control or more as active, and values a quarter to a half above the control carry no call in these data; other NCI protocols may use other cut-offs. Some T/C values carry the count of animals alive at the toxicity check (mostly the fifth day); where none is given, no animal had died by that day.

Tested on: P388 leukemia ip, CD2F1 mice, survival T/C
Assay: NCI In Vivo Anticancer Drug Screen. Data for tumor model P388 Leukemia (intraperitoneal) in CD2F1 (CDF1) mice
Conditions: T/C endpoint: median survival time, higher T/C = longer survival
[1] = dose: 100.0 mg/kg/injection, schedule: Q01DX005 (ip), vehicle: saline with Tween-80
[2] = dose: 200.0 mg/kg/injection, schedule: Q01DX005 (ip), vehicle: saline with Tween-80
[3] = dose: 30.0 mg/kg/injection, schedule: Q01DX005 (ip), vehicle: saline with Tween-80
[4] = dose: 60.0 mg/kg/injection, schedule: Q01DX005 (ip), vehicle: saline with Tween-80
[5] = dose: 50.0 mg/kg/injection, schedule: Q01DX009 (ip), vehicle: saline
[6] = dose: 240.0 mg/kg/injection, schedule: Q01DX005 (ip), vehicle: saline with Tween-80

In the case of `O=CC1C(=O)NC(=O)NC1=O`, the survivor count (dose: 200.0 mg/kg/injection, schedule: Q04DX003 (ip), vehicle: saline) was 3 of 6.
With `O=C(NC1CCCCC1)OCC1OC(n2cnc3c(=O)[nH]cnc32)C(OC(=O)NC2CCCCC2)C1OC(=O)NC1CCCCC1` (stereo not given) the survivor count (dose: 50.0 mg/kg/injection, schedule: Q01DX005 (ip), vehicle: saline with Tween-80) was 5 of 5, the survivor count [1] was 4 of 5 and the survivor count [2] was 5 of 5.
In the case of `COc1ccc(NC(=O)C2C(=O)N(c3ccc(OC)cc3)C(=O)/C2=N/NC(N)=S)cc1` (stereo not given), the survivor count [1] was 0 of 6 and the survivor count [2] was 0 of 6.
`O=C1N[C@H]2[C@H](O)[C@H](O)[C@@H](O)[C@H](O)[C@@H]2c2cc3c(c(O)c21)OCO3` was tested, and the survivor count (dose: 0.18 mg/kg/injection, schedule: Q01DX009 (ip), vehicle: other) was 0 of 6, the survivor count (dose: 0.37 mg/kg/injection, schedule: Q01DX009 (ip), vehicle: other) was 0 of 6 and the survivor count (dose: 0.75 mg/kg/injection, schedule: Q01DX009 (ip), vehicle: other) was 0 of 6. The T/C (dose: 0.75 mg/kg/injection, schedule: Q01DX009 (ip), vehicle: saline + Tween-80 + alcohol) was 139 % of control, the T/C (dose: 0.75 mg/kg/injection, schedule: Q01DX009 (ip), vehicle: saline + alcohol) was 138 % of control and the T/C (dose: 0.78 mg/kg/injection, schedule: Q01DX009 (ip), vehicle: saline + alcohol) was 133 % of control. For the same molecule, the T/C (dose: 1.5 mg/kg/injection, schedule: Q01DX005 (ip), vehicle: other) was 132 % of control, the T/C (dose: 1.5 mg/kg/injection, schedule: Q01DX005 (ip), vehicle: saline + alcohol) was 127 % of control and the survivor count (dose: 1.5 mg/kg/injection, schedule: Q01DX009 (ip), vehicle: other) was 0 of 6. The T/C (dose: 1.5 mg/kg/injection, schedule: Q01DX009 (ip), vehicle: saline + Tween-80 + alcohol) was 135 % of control, the T/C (dose: 1.5 mg/kg/injection, schedule: Q01DX009 (ip), vehicle: saline + alcohol) was 142 % of control and the T/C (dose: 1.56 mg/kg/injection, schedule: Q01DX009 (ip), vehicle: saline + alcohol) was 139 and 144 % of control. For the same molecule, the T/C (dose: 3.0 mg/kg/injection, schedule: Q01DX005 (ip), vehicle: other) was 135 % of control, the T/C (dose: 3.0 mg/kg/injection, schedule: Q01DX005 (ip), vehicle: saline + alcohol) was 134 % of control and the survivor count (dose: 3.0 mg/kg/injection, schedule: Q01DX009 (ip), vehicle: other) was 0 of 6. For the same molecule, the T/C (dose: 3.13 mg/kg/injection, schedule: Q01DX009 (ip), vehicle: saline + alcohol) was 146 % of control, the T/C (dose: 6.0 mg/kg/injection, schedule: Q01DX005 (ip), vehicle: saline + alcohol) was 145 % of control and the survivor count (dose: 6.0 mg/kg/injection, schedule: Q01DX009 (ip), vehicle: other) was 0 of 6. For the same molecule, the survivor count (dose: 12.5 mg/kg/injection, schedule: Q01DX005 (ip), vehicle: saline + alcohol) was 0 of 5, the survivor count (dose: 12.5 mg/kg/injection, schedule: Q01DX009 (ip), vehicle: saline + alcohol) was 7 of 10 and 5 of 6 and the survivor count (dose: 25.0 mg/kg/injection, schedule: Q01DX005 (ip), vehicle: saline + alcohol) was 0 of 5. For the same molecule, the survivor count (dose: 25.0 mg/kg/injection, schedule: Q01DX009 (ip), vehicle: saline + alcohol) was 0 of 4 and 0 of 6, the survivor count (dose: 50.0 mg/kg/injection, schedule: Q01DX005 (ip), vehicle: saline + alcohol) was 0 of 5 and the survivor count (dose: 50.0 mg/kg/injection, schedule: Q01DX009 (ip), vehicle: saline + alcohol) was 0 of 4. For the same molecule, the survivor count (dose: 100.0 mg/kg/injection, schedule: Q01DX009 (ip), vehicle: saline + alcohol) was 0 of 4.
`O=C1C(=O)N(c2ccccc2)C(=O)N1CCN1C(=O)C(=O)N(c2ccccc2)C1=O` was tested, and the survivor count (dose: 15.0 mg/kg/injection, schedule: Q01DX005 (ip), vehicle: saline with Tween-80) was 6 of 6, the survivor count [3] was 6 of 6 and the survivor count [4] was 6 of 6.
In the case of `CC1CCC(C)N1P(=O)(N1CC1)N1CC1` (stereo not given), the T/C (dose: 12.5 mg/kg/injection, schedule: Q04DX003 (ip), vehicle: saline) was 133 % of control, the survivor count [5] was 4 of 6 and the survivor count (dose: 100.0 mg/kg/injection, schedule: Q04DX003 (ip), vehicle: saline) was 6 of 6.
`Nc1[nH]c(=S)[nH]c(=O)c1N=O` was tested, and the T/C (dose: 12.5 mg/kg/injection, schedule: Q01DX009 (ip), vehicle: saline) was 126 % of control, the survivor count [5] was 5 of 6 and the survivor count (dose: 100.0 mg/kg/injection, schedule: Q01DX009 (ip), vehicle: saline) was 2 of 6. The survivor count (dose: 200.0 mg/kg/injection, schedule: Q01DX009 (ip), vehicle: saline) was 0 of 6.
In the case of `Cc1ccccc1C1N=C2Oc3ccccc3C=C2C(=O)N1` (stereo not given), the survivor count (dose: 25.0 mg/kg/injection, schedule: Q01DX005 (ip), vehicle: Klucel (hydroxypropylcellulose) (HPC)) was 2 of 6, the T/C (dose: 50.0 mg/kg/injection, schedule: Q01DX005 (ip), vehicle: Klucel (hydroxypropylcellulose) (HPC), evaluated on day 20) was 94 and 100 % of control and the T/C (dose: 50.0 mg/kg/injection, schedule: Q01DX005 (ip), vehicle: Klucel (hydroxypropylcellulose) (HPC), evaluated on day 30) was 97 % of control. The survivor count (dose: 50.0 mg/kg/injection, schedule: Q01DX005 (ip), vehicle: Klucel (hydroxypropylcellulose) (HPC)) was 0 of 6, the T/C (dose: 100.0 mg/kg/injection, schedule: Q01DX005 (ip), vehicle: Klucel (hydroxypropylcellulose) (HPC), evaluated on day 20) was 102 and 122 % of control and the T/C (dose: 100.0 mg/kg/injection, schedule: Q01DX005 (ip), vehicle: Klucel (hydroxypropylcellulose) (HPC), evaluated on day 30) was 129 % of control. For the same molecule, the survivor count (dose: 100.0 mg/kg/injection, schedule: Q01DX005 (ip), vehicle: Klucel (hydroxypropylcellulose) (HPC)) was 0 of 6 and the survivor count (dose: 200.0 mg/kg/injection, schedule: Q01DX005 (ip), vehicle: Klucel (hydroxypropylcellulose) (HPC)) was 2 of 6.
In the case of `O=C1c2cccc3c2C2(O)c4c1cccc4C(=O)c1cccc(c12)C3=O`, the survivor count (dose: 200.0 mg/kg/injection, schedule: Q01DX009 (ip), vehicle: saline with Tween-80) was 2 of 6.
With `S=C(SSC(=S)N1CCOCC1)N1CCOCC1` the survivor count [6] was 3 of 6.
In the case of `C/C(=N\OCC(O)CNCCSCc1ccccc1)c1ccccc1Cl` (stereo not given), the survivor count (dose: 60.0 mg/kg/injection, schedule: Q01DX005 (ip), vehicle: Klucel (hydroxypropylcellulose) (HPC)) was 3 of 6 and the survivor count (dose: 240.0 mg/kg/injection, schedule: Q01DX005 (ip), vehicle: Klucel (hydroxypropylcellulose) (HPC)) was 2 of 6.
For `CC1OC(OC2C(OC3C[C@@]4(C)C(C[C@H](O)[C@H]5[C@H](C6(C)CCC(C(C)(C)O)O6)CCC54C)[C@]4(C)CC[C@@H](O)C(C)(C)C34)OC(CO)C(O)C2O)C(O)C(O)C1O` (stereo not given in full) (tested in a mixture with another compound), the survivor count (dose: 400.0 mg/kg/injection, schedule: Q01DX009 (ip), vehicle: Klucel (hydroxypropylcellulose) (HPC)) was 1 of 6.
For `CCCCCCCCCCCC(O)CCCC(O)CC(O)CC(O)CC1CC=CC(=O)O1` (stereo not given), the survivor count (dose: 100.0 mg/kg/injection, schedule: Q01DX009 (ip), vehicle: Klucel (hydroxypropylcellulose) (HPC)) was 6 of 6.
In the case of `CCCCCC(CN(C)C)/C(CC(NO)c1ccccc1)=N\O` (stereo not given), the survivor count (dose: 200.0 mg/kg/injection, schedule: Q01DX009 (ip), vehicle: Klucel (hydroxypropylcellulose) (HPC)) was 4 of 6.
`CN1CCN(C#CC(=O)c2ccc(Cl)cc2)CC1` was tested, and the survivor count [3] was 5 of 6, the survivor count [4] was 0 of 6 and the survivor count (dose: 120.0 mg/kg/injection, schedule: Q01DX005 (ip), vehicle: saline with Tween-80) was 0 of 6. The survivor count [6] was 0 of 6.
With `CC[C@@H](C)[C@@H]1NC(=O)C(NC(=O)C(CC(C)C)NC)C(C)OC(=O)C(Cc2ccc(OC)cc2)N(C)C(=O)C2CCCN2C(=O)C(CC(C)C)NC(=O)C(C)C(=O)C(C(C)C)OC(=O)C[C@H]1O` (stereo not given in full) the T/C (dose: 0.5 mg/kg/injection, schedule: Q01DX005 (ip), vehicle: water) was 131 % of control, the T/C (dose: 1.0 mg/kg/injection, schedule: Q01DX005 (ip), vehicle: water) was 140 % of control [5 of 6 alive] and the T/C (dose: 2.0 mg/kg/injection, schedule: Q01DX005 (ip), vehicle: saline + alcohol) was 138 % of control. The T/C (dose: 4.0 mg/kg/injection, schedule: Q01DX005 (ip), vehicle: saline + alcohol) was 133 % of control and the T/C (dose: 8.0 mg/kg/injection, schedule: Q01DX005 (ip), vehicle: saline + alcohol) was 145 % of control.
